Data taken from patent publication US20250145665A1, “MACROCYCLIC PEPTIDES USEFUL AS MODULATORS OF TNF ALPHA” (Bristol-Myers Squibb Company, priority 2023, published 2025).
Some of these results come from one statement about several compounds together. Starred links: 1 amine or outer side, 2 acyl side, 3 side chain; linkers in the order of their positions; H or OH if unused. Positions of bridges follow the written chain, without caps; N, C: chain ends. Non-standard residues stand in square brackets, D forms with d. Residues, ends and D or L forms follow the SMILES beside them. ξ: configuration not given here. Bip(4'-COOH) = N[C@@H](Cc1ccc(-c2ccc(C(=O)O)cc2)cc1)C(=O)O; Bip(4'-NHAc) = CC(=O)Nc1ccc(-c2ccc(C[C@H](N)C(=O)O)cc2)cc1; Ala(morpholin-4-yl) = N[C@@H](CN1CCOCC1)C(=O)O; X85 = N=C(N)c1cccc(C[C@H](N[*:1])C(=O)[*:2])c1; Bip = N[C@@H](Cc1ccc(-c2ccccc2)cc1)C(=O)O; Ala(2-furyl) = N[C@@H](Cc1ccco1)C(=O)O; 2Pal = N[C@@H](Cc1ccccn1)C(=O)O; 2Thi = N[C@@H](Cc1cccs1)C(=O)O; Cha = N[C@@H](CC1CCCCC1)C(=O)O; Tle = CC(C)(C)[C@H](N)C(=O)O; ξIle = CC[C@H](C)C(N)C(=O)O; Aze = O=C(O)[C@@H]1CCN1; Sar = CNCC(=O)O

Amino acid sequences for entries named in this document (tags omitted). Residues count along the entry.
UniProt P01375, 77-233 limits assumed: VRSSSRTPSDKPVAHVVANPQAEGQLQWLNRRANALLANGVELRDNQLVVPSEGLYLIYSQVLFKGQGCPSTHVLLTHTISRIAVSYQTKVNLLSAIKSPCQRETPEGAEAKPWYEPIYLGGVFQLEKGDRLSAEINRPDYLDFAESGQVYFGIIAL

Each molecule was assayed against TNFα (Homo sapiens, UniProt P01375) (assay: TNF-Induced HEK-Blue Assay). Details: summary statement for all examples; read-out: IC50 values measured in the TNF induced HEK-Blue assay.
Format: cell-based

IC50, ≤ 25 µM:
CC(=O)Nc1ccc(-c2ccc(C[C@@H]3NC(=O)[C@H](Cc4ccc(-c5ccc(C(=O)O)cc5)cc4)NC(=O)[C@H](CN4CCOCC4)NC(=O)CSC[C@@H](C(=O)NCC(N)=O)NC(=O)[C@H](CC(C)C)NC(=O)[C@H](Cc4ccccc4)NC(=O)[C@H](C(C)C)NC(=O)[C@@H]4CCCN4C(=O)[C@H](C(C)C)NC(=O)[C@@H](CCCNC(=N)N)NC(=O)[C@H](CC(=O)O)NC(=O)[C@H](Cc4ccc(O)cc4)NC(=O)CN(C)C3=O)cc2)cc1 [Example 287] ({CH2CO}-[Ala(morpholin-4-yl)][Bip(4'-COOH)][Bip(4'-NHAc)][Sar]YD[dR]VPVFLCG-NH2; thioether N-13)
CC(=O)Nc1ccc(-c2ccc(C[C@@H]3NC(=O)[C@H](Cc4ccc(-c5ccccc5)cc4)NC(=O)[C@H](CC4CCCCC4)NC(=O)CSC[C@@H](C(=O)NCC(N)=O)NC(=O)[C@H](CC(C)C)NC(=O)[C@H](Cc4ccco4)NC(=O)[C@H](C(C)C)NC(=O)[C@@H]4CCCN4C(=O)[C@H](C(C)C)NC(=O)[C@@H](CCCNC(=N)N)NC(=O)[C@H](CC(=O)O)NC(=O)[C@@H]4CCCN4C(=O)CN(C)C3=O)cc2)cc1 [Example 288] ({CH2CO}-[Cha][Bip][Bip(4'-NHAc)][Sar]PD[dR]VPV[Ala(2-furyl)]LCG-NH2; thioether N-13)
CC(=O)Nc1ccc(-c2ccc(C[C@@H]3NC(=O)[C@H](Cc4ccc(-c5ccccc5)cc4)NC(=O)[C@H](CC4CCCCC4)NC(=O)CSC[C@@H](C(=O)NCC(N)=O)NC(=O)[C@H](CC(C)C)NC(=O)[C@H](Cc4cccs4)NC(=O)[C@H](C(C)C)NC(=O)[C@@H]4CCCN4C(=O)[C@H](C(C)C)NC(=O)[C@@H](CCCNC(=N)N)NC(=O)[C@H](CC(=O)O)NC(=O)[C@@H]4CCCN4C(=O)CN(C)C3=O)cc2)cc1 [Example 289] ({CH2CO}-[Cha][Bip][Bip(4'-NHAc)][Sar]PD[dR]VPV[2Thi]LCG-NH2; thioether N-13)
CC[C@H](C)C1NC(=O)[C@@H]2CCCN2C(=O)[C@H]([C@@H](C)CC)NC(=O)[C@@H](CCCNC(=N)N)NC(=O)[C@H](CC(=O)O)NC(=O)[C@H](Cc2ccccn2)NC(=O)CN(C)C(=O)[C@H](Cc2ccc(-c3ccc(NC(C)=O)cc3)cc2)NC(=O)[C@H](Cc2ccc(-c3ccccc3)cc2)NC(=O)[C@H](CC2CCCCC2)NC(=O)CSC[C@@H](C(=O)NCC(N)=O)NC(=O)[C@H](CC(C)C)NC(=O)[C@H](CCCNC(=N)N)NC1=O (some centres unmarked) [Example 290] ({CH2CO}-[Cha][Bip][Bip(4'-NHAc)][Sar][2Pal]D[dR]IP[ξIle]RLCG-NH2; thioether N-13)
CC[C@H](C)C1NC(=O)[C@@H]2CCCN2C(=O)[C@H]([C@@H](C)CC)NC(=O)[C@@H](CCCNC(=N)N)NC(=O)[C@H](CC(=O)O)NC(=O)[C@H](Cc2ccccn2)NC(=O)CN(C)C(=O)[C@H](Cc2ccc(-c3ccc(NC(C)=O)cc3)cc2)NC(=O)[C@H](Cc2ccc(-c3ccc(C(=O)O)cc3)cc2)NC(=O)[C@H](CC2CCCCC2)NC(=O)CSC[C@@H](C(=O)NCC(N)=O)NC(=O)[C@H](CC(C)C)NC(=O)[C@H](CCCNC(=N)N)NC1=O (some centres unmarked) [Example 291] ({CH2CO}-[Cha][Bip(4'-COOH)][Bip(4'-NHAc)][Sar][2Pal]D[dR]IP[ξIle]RLCG-NH2; thioether N-13)
CC[C@H](C)[C@@H]1NC(=O)[C@@H]2CCCN2C(=O)[C@H]([C@@H](C)CC)NC(=O)[C@@H](CCCNC(=N)N)NC(=O)[C@H](CC(=O)O)NC(=O)[C@H](Cc2cnc[nH]2)NC(=O)CN(C)C(=O)[C@H](Cc2ccc(-c3ccc(NC(C)=O)cc3)cc2)NC(=O)[C@H](Cc2ccc(-c3ccc(C(=O)O)cc3)cc2)NC(=O)[C@H](CN2CCOCC2)NC(=O)CSC[C@@H](C(=O)NCC(N)=O)NC(=O)[C@H](CC(C)C)NC(=O)[C@H](Cc2cnc[nH]2)NC1=O [Example 292] ({CH2CO}-[Ala(morpholin-4-yl)][Bip(4'-COOH)][Bip(4'-NHAc)][Sar]HD[dR]IPIHLCG-NH2; thioether N-13)
CC[C@H](C)[C@@H]1NC(=O)[C@@H]2CCCN2C(=O)[C@H]([C@@H](C)CC)NC(=O)[C@@H](CCCNC(=N)N)NC(=O)[C@H](CC(=O)O)NC(=O)[C@H](Cc2ccc(O)cc2)NC(=O)CN(C)C(=O)[C@H](Cc2ccc(-c3ccc(NC(C)=O)cc3)cc2)NC(=O)[C@H](Cc2ccc(-c3ccccc3)cc2)NC(=O)[C@H](CN2CCOCC2)NC(=O)CSC[C@@H](C(=O)NCC(N)=O)NC(=O)[C@H](CC(C)C)NC(=O)[C@H](Cc2cccs2)NC1=O [Example 293] ({CH2CO}-[Ala(morpholin-4-yl)][Bip][Bip(4'-NHAc)][Sar]YD[dR]IPI[2Thi]LCG-NH2; thioether N-13)
CC[C@H](C)[C@@H]1NC(=O)[C@@H]2CCN2C(=O)[C@H]([C@@H](C)CC)NC(=O)[C@@H](CCCNC(=N)N)NC(=O)[C@H](CC(=O)O)NC(=O)[C@H](Cc2ccc(O)cc2)NC(=O)CN(C)C(=O)[C@H](Cc2ccc(-c3ccc(NC(C)=O)cc3)cc2)NC(=O)[C@H](Cc2ccc(-c3ccccc3)cc2)NC(=O)[C@H](C(C)(C)C)NC(=O)CSC[C@@H](C(=O)NCC(N)=O)NC(=O)[C@H](CC(C)C)NC(=O)[C@H](Cc2ccc(O)cc2)NC1=O [Example 294] ({CH2CO}-[Tle][Bip][Bip(4'-NHAc)][Sar]YD[dR]I[Aze]IYLCG-NH2; thioether N-13)
CC[C@H](C)[C@@H]1NC(=O)[C@@H]2CCCN2C(=O)[C@H]([C@@H](C)CC)NC(=O)[C@@H](CCCNC(=N)N)NC(=O)[C@H](CC(=O)O)NC(=O)[C@H](Cc2ccccc2)NC(=O)CN(C)C(=O)[C@H](Cc2ccc(-c3ccc(NC(C)=O)cc3)cc2)NC(=O)[C@H](Cc2ccc(-c3ccc(C(=O)O)cc3)cc2)NC(=O)[C@H](C(C)(C)C)NC(=O)CSC[C@@H](C(=O)NCC(N)=O)NC(=O)[C@H](CC(C)C)NC(=O)[C@H](Cc2cnc[nH]2)NC1=O [Example 295] ({CH2CO}-[Tle][Bip(4'-COOH)][Bip(4'-NHAc)][Sar]FD[dR]IPIHLCG-NH2; thioether N-13)
CC[C@H](C)[C@@H]1NC(=O)[C@@H]2CCCN2C(=O)[C@H]([C@@H](C)CC)NC(=O)[C@@H](CCCNC(=N)N)NC(=O)[C@H](CC(=O)O)NC(=O)[C@H](Cc2ccc(O)cc2)NC(=O)CN(C)C(=O)[C@H](Cc2ccc(-c3ccc(NC(C)=O)cc3)cc2)NC(=O)[C@H](Cc2ccc(-c3ccccc3)cc2)NC(=O)[C@H](C(C)(C)C)NC(=O)CSC[C@@H](C(=O)NCC(N)=O)NC(=O)[C@H](CC(C)C)NC(=O)[C@H](Cc2ccccc2)NC1=O [Example 296] ({CH2CO}-[Tle][Bip][Bip(4'-NHAc)][Sar]YD[dR]IPIFLCG-NH2; thioether N-13)
CC[C@H](C)[C@@H]1NC(=O)[C@@H]2CCCN2C(=O)[C@H]([C@@H](C)CC)NC(=O)[C@@H](CCCNC(=N)N)NC(=O)[C@H](CC(=O)O)NC(=O)[C@H](Cc2ccccn2)NC(=O)CN(C)C(=O)[C@H](Cc2ccc(-c3ccc(NC(C)=O)cc3)cc2)NC(=O)[C@H](Cc2ccc(-c3ccccc3)cc2)NC(=O)[C@H](C(C)(C)C)NC(=O)CSC[C@@H](C(=O)NCC(N)=O)NC(=O)[C@H](CC(C)C)NC(=O)[C@H](Cc2cccc(C(=N)N)c2)NC1=O [Example 297] ({CH2CO}-[Tle][Bip][Bip(4'-NHAc)][Sar][2Pal]D[dR]IPI[X85]LCG-NH2; thioether N-13)
